This assay concerns the target Hsp90β, endogenous in MDA-MB-231 cells (human (endogenous in MDA-MB-231)) (UniProt P08238). The assay is described as follows: cross-linking + affinity purification with mass spectrometry; surface proteins of MDA-MB-231 cells cross-linked with cell impermeable, thiol-cleavable DTSSP (2 mM, 1 hour, 4°C); lysates immunoprecipitated with mouse anti human Hsp90α/β antibody on Dynabeads; non-reducing SDS-PAGE, bands excised, MS/MS.

By UniProt entry, the sequences of proteins in these tests, tags left out. Residues count along the entry.
UniProt P08238: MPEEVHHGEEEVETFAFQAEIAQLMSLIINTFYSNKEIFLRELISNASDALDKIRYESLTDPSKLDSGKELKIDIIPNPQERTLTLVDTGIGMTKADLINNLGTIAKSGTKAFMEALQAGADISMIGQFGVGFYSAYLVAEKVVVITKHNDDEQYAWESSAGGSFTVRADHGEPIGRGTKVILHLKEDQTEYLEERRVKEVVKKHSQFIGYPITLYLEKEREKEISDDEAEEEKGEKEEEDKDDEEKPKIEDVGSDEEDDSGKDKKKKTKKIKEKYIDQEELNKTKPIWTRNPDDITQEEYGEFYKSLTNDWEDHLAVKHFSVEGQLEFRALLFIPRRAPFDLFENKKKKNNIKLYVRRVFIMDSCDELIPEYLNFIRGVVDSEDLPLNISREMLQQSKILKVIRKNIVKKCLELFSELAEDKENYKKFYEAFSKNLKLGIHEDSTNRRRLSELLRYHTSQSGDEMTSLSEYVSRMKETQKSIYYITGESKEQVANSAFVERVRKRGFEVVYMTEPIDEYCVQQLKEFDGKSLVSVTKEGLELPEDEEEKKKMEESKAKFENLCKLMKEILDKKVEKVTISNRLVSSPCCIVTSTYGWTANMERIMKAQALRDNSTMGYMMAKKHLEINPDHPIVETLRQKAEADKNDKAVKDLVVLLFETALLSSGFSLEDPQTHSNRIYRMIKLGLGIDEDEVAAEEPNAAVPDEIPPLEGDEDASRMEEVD
UniProt P02751, residues 32-2477: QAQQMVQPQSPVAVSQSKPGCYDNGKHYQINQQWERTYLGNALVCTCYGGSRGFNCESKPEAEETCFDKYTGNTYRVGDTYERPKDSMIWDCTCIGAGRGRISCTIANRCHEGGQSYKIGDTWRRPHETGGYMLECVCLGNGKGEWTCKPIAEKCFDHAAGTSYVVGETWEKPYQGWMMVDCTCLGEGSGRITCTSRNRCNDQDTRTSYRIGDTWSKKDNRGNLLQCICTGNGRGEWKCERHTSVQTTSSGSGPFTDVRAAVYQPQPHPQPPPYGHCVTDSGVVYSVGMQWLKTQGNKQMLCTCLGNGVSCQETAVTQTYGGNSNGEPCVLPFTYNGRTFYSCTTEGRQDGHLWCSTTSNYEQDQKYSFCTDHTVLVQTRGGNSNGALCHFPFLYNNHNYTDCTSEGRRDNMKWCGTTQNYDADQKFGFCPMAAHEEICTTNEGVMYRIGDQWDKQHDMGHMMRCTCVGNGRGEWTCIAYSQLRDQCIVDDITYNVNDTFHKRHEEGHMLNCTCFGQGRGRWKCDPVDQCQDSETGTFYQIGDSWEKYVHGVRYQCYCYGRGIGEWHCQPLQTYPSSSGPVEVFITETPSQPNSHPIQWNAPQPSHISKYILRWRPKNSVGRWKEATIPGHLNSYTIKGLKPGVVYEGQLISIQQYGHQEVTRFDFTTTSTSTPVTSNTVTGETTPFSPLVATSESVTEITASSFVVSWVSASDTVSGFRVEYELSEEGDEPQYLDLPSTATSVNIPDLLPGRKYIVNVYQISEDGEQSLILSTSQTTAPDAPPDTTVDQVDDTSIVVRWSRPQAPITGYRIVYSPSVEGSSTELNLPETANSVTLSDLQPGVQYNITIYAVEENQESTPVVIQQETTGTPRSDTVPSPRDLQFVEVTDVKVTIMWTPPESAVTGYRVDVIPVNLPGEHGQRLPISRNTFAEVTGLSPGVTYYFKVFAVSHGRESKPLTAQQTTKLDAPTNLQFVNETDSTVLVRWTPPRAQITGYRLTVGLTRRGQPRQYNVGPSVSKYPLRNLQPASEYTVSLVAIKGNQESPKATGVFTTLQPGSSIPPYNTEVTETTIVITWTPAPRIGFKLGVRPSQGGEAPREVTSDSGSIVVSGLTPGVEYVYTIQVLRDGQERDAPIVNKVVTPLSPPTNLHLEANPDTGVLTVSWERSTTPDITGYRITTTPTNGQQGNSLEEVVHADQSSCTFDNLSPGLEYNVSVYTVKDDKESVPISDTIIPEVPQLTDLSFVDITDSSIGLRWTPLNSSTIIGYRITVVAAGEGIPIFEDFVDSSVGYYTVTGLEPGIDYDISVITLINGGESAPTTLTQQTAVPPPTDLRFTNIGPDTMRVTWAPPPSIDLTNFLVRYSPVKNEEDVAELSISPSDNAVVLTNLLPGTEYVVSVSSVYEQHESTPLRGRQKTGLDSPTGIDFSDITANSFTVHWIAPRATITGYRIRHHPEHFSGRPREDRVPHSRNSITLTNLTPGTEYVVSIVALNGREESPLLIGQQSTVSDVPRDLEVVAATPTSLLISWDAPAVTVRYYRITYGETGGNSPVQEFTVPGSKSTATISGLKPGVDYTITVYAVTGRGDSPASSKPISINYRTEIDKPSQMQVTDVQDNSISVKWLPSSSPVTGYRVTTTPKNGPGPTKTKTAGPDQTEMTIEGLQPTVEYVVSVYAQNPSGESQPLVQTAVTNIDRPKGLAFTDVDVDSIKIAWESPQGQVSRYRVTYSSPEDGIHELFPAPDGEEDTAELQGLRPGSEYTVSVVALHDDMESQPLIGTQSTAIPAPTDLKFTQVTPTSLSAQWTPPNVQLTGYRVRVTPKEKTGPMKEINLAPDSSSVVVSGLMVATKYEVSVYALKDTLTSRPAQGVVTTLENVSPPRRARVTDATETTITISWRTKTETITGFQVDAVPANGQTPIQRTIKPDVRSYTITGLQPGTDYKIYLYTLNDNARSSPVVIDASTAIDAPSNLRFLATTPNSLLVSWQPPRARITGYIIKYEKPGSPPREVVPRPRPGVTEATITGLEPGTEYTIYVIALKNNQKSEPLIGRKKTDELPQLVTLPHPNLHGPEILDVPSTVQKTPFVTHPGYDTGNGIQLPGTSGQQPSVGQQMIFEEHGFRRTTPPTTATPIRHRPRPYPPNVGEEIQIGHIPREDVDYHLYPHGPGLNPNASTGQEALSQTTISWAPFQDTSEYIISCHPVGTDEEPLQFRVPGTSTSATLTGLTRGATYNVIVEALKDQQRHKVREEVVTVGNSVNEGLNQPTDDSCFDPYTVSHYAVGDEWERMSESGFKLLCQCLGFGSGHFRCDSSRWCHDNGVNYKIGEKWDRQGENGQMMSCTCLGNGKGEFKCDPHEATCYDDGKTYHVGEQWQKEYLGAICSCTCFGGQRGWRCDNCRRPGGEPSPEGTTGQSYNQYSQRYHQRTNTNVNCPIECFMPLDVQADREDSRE

These are yes or no findings as the source states them, for the method shown. Binding seen in cells or lysates may run through a third protein. Here binding means that the protein was enriched with, or labelled near, the bait; the list need not be complete.

“human FN1 (fibronectin), endogenous in MDA-MB-231 cells (from UniProt P02751 32-2477)”: the binding entry is reported as “binds”.

For the origin of these results see article PMC3899338.
